Data reported in article PMC6240879.
These are yes or no findings as the source states them, for the method shown. In cells and extracts the contact can be indirect. Some binding calls cover weakened binding; strength is not graded here.

Sequences of proteins named here, by UniProt entry; tags and fusion partners are left off. Residues count along the entry.
UniProt Q8BMS1, residues 37-763: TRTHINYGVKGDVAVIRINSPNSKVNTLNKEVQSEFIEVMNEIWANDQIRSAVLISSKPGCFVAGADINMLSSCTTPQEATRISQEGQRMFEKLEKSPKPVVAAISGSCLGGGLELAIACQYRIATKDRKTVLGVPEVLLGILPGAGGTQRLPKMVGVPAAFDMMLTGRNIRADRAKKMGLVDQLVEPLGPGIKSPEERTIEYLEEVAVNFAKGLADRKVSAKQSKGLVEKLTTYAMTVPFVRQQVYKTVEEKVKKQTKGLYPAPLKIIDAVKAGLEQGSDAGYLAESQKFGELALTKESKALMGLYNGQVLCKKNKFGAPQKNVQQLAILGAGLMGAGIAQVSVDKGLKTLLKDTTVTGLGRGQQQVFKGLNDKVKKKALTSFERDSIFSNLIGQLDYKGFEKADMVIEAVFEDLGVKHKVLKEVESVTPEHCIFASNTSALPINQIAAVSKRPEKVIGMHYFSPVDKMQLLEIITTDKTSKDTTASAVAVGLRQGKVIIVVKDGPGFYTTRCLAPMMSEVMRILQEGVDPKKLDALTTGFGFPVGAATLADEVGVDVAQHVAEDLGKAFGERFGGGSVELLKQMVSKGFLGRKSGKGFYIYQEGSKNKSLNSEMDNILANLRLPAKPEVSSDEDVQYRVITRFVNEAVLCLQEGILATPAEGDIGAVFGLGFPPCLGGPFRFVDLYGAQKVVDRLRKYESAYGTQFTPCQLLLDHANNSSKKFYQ

Target: T1, GCN5 general control of amino acid synthesis 5-like 1 (GCN5L1) (mouse (endogenous in mouse liver)) (UniProt O55102)
T1 sequence: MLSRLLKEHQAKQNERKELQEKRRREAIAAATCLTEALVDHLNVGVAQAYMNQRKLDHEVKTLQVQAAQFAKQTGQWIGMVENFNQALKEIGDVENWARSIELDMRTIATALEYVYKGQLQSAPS
Experiment: co-IP; mouse liver tissue lysate in 1x CHAPS buffer, incubated overnight at 4 °C with the relevant antibody or an IgG control; Protein G-agarose beads, washed with CHAPS buffer, eluted in LDS sample buffer at 95 °C; Western blot

- binding: binds
Substance: hydroxyacyl-CoA dehydrogenase trifunctional multienzyme complex subunit α (HADHA) (from UniProt Q8BMS1 37-763)
